Results from patent publication US20070020706A1 (UNIVERSITY HOSPITALS OF CLEVELAND, published 2007).
These are yes or no findings as the source states them, for the method shown. In cells and extracts the contact can be indirect. Some results given as binding are weak or reduced against the parent protein; the word gives no strength. For some assays here: Where a sequence is shown, tags or fusion partners need not be part of it.

The chains behind the UniProt entries cited, without tags or fusion partners.
UniProt P35626: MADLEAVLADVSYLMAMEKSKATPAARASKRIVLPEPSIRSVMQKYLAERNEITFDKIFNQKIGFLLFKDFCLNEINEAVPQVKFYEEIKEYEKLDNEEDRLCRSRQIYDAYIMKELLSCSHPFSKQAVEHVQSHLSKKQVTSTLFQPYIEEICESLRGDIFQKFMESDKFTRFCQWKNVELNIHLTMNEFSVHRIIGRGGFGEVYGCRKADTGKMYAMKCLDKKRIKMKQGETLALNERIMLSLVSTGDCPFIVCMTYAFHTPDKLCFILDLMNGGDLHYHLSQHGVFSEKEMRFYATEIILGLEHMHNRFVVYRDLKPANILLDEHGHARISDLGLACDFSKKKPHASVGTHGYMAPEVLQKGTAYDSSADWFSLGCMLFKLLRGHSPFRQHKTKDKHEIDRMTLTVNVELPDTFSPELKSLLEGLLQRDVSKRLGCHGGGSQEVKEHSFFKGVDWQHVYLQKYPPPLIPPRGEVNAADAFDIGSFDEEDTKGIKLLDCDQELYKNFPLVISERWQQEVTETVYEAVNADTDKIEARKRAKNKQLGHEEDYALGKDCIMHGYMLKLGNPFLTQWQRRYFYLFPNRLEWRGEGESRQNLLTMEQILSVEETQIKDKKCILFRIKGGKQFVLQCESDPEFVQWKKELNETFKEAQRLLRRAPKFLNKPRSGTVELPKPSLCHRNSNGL
UniProt P32121: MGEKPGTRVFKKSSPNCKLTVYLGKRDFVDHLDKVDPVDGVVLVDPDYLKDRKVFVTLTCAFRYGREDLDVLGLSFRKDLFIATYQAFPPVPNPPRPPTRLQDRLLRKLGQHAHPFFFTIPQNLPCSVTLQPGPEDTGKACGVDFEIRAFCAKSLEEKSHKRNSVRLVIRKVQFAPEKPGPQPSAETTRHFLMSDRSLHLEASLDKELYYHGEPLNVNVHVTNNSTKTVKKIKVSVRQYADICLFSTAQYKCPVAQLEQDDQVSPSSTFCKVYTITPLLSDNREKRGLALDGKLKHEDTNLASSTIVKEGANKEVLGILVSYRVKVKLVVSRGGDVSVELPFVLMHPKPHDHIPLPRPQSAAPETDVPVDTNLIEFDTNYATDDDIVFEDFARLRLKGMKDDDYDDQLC

T1: P2X7(Myc), full-length P2X7 with an N-terminal myc tag (human) (UniProt Q99572)
T1 sequence: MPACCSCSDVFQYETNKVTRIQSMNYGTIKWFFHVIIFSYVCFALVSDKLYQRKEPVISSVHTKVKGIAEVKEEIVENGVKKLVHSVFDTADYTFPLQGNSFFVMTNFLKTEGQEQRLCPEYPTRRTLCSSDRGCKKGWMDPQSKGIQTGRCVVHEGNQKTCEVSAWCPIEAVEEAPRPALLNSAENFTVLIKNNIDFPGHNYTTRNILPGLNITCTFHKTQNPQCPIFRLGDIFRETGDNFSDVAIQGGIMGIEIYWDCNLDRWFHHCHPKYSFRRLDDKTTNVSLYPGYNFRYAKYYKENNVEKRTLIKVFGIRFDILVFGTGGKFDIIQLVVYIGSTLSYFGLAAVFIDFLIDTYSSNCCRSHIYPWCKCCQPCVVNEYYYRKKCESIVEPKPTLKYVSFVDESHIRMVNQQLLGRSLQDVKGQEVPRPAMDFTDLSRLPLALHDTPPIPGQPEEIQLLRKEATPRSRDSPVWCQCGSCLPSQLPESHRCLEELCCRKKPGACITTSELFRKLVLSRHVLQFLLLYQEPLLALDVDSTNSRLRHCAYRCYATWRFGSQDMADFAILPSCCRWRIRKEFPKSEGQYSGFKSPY

T2: N-HA-P2X7-WT, full-length P2X7 with an N-terminal HA tag (human) (UniProt Q99572)
T2 sequence: T1 sequence

T3: N-HA-P2X7-j, truncated P2X7-j with an N-terminal HA tag (human) (UniProt Q99572)
T3 sequence: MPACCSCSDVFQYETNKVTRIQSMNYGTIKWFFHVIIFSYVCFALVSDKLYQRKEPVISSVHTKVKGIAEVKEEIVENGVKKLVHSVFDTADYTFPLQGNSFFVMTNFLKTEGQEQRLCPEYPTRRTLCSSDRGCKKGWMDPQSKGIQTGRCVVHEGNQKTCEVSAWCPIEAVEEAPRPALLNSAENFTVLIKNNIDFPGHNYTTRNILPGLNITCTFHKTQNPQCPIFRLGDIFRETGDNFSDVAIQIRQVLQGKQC

B1: full-length human P2X7 receptor (receptor)
chain: T1 sequence
notes: Expressed from cDNA in HEK-293 cells or endogenous in human cells and tissues (CaSki, HeLa, cervical tissue); Mostly assayed in cell extracts on immunoblots, where it runs as 65, 75 and 85 kDa forms; also called P2X7-RFL; P2X7-WT
B2: truncated P2X7-j receptor protein (receptor)
chain: T3 sequence
notes: Untagged P2X7-j, expressed in HEK-293 cells or endogenous in human cancer cell lines; Runs as 42-45 kDa bands; also called P2X7-RTR

Legend:
[1] = target: B1; test: co-immunoprecipitation from ATP-treated CaSki lysates
[2] = target: T1, P2X7(Myc), full-length P2X7 with an N-terminal myc tag (human); test: co-immunoprecipitation from ATP-treated HEK-293-c-Myc-hP2X7-R lysates
[3] = target: B1; test: co-immunoprecipitation from ATP-treated CaSki lysates: IP anti-P2X7, blot anti-GRK-3
[4] = target: B1; test: co-immunoprecipitation from ATP-treated CaSki lysates: IP anti-P2X7, blot anti-β-arrestin-2
[5] = target: T2, N-HA-P2X7-WT, full-length P2X7 with an N-terminal HA tag (human); test: co-immunoprecipitation in MDCK cells: IP anti-Myc, blot anti-HA
[6] = target: T2, N-HA-P2X7-WT, full-length P2X7 with an N-terminal HA tag (human); test: co-immunoprecipitation in co-transfected HEK293 cells
[7] = target: T3, N-HA-P2X7-j, truncated P2X7-j with an N-terminal HA tag (human); test: as above

**Q.** With “G-protein coupled receptor kinase 3 (from UniProt P35626 1-688) (enzyme)” as the molecule, how does the binding [1] read?
**A.** binds

**Q.** And the binding [2]?
**A.** binds

**Q.** What about the binding [3] of the same molecule?
**A.** binds

**Q.** “β-arrestin-2 (from UniProt P32121 1-409)” was tested. Which binding [2] did it give?
**A.** binds

**Q.** What about the binding [4] of the same molecule?
**A.** binds

**Q.** How did the binding [5] turn out when B1 was run?
**A.** binds

**Q.** B2 was tested. Which binding [6] did it give?
**A.** binds

**Q.** What about the binding [7] of the same molecule?
**A.** binds
